The list shows a part of the results.
Legend:
Experiment in all cases: log2 fold change, soluble protein after heating vs DMSO (PISA); higher = thermal stabilisation; K562 lysate, 10 uM; active = over 0.2 and 3.5 SD of the protein, either way, in both replicates (recomputed)
erlotinib = compound: C#Cc1cccc(Nc2ncnc3cc(OCCOC)c(OCCOC)cc23)c1 [erlotinib]
In short: (§1)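 K562 pellets were dounce-homogenised in PBS pH 7.4 with 1 mM MgCl2, and the crude extract at 1 mg/mL protein was treated with 10 μM compound for 30 min. Aliquots were heated for 3 min across 48°C-58°C, pooled, and brought to 0.5% NP-40 at 4°C; soluble protein was the supernatant after 21,000xg for 90 min. Soluble protein was quantified by TMTpro 16plex LC-MS/MS with channel sums equalised, and reported as log2 fold change in thermal stability against DMSO controls, with values from duplicates.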

Sequences of proteins named here, by UniProt entry; tags and fusion partners are left off. A change or cut given only in a name is not applied to a line headed by its entry.
UniProt Q99963: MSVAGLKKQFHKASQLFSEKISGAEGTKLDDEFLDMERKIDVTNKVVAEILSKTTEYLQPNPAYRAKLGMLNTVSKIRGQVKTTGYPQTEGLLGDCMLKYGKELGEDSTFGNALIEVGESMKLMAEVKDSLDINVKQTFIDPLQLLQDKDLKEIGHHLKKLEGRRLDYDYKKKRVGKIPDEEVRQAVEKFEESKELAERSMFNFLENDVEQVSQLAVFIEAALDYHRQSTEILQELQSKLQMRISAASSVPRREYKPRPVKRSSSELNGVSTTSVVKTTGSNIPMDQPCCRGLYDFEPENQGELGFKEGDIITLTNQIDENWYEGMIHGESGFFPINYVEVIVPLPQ
UniProt Q96BI1: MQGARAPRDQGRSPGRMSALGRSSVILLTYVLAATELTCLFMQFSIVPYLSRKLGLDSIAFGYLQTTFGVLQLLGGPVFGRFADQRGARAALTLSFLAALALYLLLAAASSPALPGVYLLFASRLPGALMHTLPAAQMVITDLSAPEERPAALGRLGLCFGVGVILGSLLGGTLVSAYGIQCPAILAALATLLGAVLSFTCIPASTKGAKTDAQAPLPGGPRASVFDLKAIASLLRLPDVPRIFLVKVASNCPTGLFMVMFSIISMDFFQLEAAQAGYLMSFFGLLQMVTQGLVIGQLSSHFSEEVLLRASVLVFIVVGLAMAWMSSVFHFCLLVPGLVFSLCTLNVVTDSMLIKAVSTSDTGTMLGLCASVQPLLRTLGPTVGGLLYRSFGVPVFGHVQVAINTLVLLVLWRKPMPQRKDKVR
UniProt Q6P4A7: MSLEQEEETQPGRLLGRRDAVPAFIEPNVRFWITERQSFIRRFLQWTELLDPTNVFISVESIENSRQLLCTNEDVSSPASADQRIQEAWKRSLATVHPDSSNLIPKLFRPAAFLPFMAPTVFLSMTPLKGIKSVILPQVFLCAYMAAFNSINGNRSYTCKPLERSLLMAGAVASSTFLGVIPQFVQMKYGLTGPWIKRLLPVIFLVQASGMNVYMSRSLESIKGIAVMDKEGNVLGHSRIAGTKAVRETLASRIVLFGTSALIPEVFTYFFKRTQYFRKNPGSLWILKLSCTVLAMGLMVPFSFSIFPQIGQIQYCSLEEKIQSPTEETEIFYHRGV
UniProt Q9H0F6: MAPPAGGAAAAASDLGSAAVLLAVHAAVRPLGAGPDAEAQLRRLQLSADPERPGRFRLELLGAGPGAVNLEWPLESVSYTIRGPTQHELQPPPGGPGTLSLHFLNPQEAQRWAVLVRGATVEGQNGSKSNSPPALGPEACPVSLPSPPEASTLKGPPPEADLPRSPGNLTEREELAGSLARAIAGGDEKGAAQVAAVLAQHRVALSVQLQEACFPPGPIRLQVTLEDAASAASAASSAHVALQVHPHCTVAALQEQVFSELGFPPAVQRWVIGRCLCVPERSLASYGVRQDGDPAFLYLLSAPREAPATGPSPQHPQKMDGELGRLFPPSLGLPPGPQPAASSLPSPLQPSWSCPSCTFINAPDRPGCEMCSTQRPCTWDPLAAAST
UniProt P30740: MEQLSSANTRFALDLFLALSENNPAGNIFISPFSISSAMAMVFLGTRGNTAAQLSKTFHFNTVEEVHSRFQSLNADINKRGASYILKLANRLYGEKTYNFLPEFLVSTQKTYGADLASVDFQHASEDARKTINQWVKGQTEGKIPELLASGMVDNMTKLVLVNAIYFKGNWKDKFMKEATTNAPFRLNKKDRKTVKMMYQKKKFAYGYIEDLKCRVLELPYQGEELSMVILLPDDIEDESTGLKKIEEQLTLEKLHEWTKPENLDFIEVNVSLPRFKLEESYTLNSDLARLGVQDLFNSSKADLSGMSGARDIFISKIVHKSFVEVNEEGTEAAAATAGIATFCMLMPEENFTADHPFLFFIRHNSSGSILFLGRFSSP
UniProt Q86VZ5: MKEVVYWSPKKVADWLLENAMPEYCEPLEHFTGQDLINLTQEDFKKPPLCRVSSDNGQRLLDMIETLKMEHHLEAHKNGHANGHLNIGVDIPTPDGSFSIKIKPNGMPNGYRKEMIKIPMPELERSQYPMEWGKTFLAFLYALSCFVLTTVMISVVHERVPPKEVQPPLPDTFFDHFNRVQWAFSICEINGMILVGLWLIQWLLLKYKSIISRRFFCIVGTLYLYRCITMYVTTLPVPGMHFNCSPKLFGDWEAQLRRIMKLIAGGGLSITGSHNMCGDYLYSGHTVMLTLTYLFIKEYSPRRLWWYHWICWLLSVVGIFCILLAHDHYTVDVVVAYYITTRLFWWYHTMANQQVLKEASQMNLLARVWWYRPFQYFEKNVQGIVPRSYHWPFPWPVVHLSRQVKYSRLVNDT
UniProt O75368: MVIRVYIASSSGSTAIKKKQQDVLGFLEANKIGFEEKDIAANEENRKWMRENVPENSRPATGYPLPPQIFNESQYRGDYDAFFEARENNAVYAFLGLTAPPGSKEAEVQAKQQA
UniProt Q9H9B4: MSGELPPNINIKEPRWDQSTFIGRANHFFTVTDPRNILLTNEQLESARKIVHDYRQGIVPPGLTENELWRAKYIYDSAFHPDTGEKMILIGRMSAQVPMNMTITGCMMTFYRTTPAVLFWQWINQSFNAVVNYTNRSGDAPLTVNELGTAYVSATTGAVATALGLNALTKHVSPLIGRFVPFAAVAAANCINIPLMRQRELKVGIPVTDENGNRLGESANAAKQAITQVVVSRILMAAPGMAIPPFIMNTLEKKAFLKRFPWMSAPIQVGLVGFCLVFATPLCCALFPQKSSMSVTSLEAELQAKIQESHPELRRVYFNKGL
UniProt Q13309, whole entry, looked up: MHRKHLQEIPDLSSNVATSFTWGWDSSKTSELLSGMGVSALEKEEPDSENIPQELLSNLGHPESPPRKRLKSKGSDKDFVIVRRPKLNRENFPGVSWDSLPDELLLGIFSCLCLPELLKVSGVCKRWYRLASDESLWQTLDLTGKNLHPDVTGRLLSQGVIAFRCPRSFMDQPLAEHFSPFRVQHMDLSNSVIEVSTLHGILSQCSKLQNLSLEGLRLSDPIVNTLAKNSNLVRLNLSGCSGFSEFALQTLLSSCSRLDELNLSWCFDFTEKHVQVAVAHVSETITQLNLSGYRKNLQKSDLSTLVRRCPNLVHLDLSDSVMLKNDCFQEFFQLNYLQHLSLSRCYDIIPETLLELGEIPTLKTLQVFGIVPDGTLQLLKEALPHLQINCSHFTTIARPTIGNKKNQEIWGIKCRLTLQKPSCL
UniProt Q14493, whole entry, looked up: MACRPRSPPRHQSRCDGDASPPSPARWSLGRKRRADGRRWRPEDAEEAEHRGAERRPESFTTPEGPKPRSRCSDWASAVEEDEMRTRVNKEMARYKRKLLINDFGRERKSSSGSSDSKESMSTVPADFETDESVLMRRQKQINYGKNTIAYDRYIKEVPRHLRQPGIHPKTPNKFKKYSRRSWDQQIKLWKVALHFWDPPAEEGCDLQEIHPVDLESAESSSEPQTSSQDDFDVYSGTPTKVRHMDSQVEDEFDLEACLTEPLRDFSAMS
UniProt Q9NTG7: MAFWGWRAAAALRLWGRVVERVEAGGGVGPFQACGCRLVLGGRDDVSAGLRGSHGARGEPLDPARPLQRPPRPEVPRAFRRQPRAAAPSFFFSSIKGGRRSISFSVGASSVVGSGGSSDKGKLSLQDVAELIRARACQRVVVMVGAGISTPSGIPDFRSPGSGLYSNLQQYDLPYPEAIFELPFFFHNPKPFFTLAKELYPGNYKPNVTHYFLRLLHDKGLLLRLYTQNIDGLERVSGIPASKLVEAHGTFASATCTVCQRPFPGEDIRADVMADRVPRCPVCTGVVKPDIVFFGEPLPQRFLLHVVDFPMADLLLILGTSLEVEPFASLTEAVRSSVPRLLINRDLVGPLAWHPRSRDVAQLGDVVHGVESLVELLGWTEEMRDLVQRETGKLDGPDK
UniProt Q9UQQ2: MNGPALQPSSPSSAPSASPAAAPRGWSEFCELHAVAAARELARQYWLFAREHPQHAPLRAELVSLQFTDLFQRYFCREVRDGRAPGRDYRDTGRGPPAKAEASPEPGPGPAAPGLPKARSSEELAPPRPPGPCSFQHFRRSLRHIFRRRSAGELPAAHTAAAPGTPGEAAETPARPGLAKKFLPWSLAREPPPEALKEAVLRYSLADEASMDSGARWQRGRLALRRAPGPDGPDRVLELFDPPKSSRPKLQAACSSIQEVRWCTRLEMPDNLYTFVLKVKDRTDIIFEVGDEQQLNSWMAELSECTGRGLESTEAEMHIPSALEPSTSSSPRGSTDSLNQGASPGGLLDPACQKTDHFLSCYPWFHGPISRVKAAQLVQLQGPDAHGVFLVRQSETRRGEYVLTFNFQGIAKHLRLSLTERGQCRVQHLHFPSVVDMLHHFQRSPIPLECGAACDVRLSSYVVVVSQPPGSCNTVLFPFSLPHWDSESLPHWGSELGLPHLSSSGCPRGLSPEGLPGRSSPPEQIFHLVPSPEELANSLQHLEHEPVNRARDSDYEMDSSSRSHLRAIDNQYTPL
UniProt P12757: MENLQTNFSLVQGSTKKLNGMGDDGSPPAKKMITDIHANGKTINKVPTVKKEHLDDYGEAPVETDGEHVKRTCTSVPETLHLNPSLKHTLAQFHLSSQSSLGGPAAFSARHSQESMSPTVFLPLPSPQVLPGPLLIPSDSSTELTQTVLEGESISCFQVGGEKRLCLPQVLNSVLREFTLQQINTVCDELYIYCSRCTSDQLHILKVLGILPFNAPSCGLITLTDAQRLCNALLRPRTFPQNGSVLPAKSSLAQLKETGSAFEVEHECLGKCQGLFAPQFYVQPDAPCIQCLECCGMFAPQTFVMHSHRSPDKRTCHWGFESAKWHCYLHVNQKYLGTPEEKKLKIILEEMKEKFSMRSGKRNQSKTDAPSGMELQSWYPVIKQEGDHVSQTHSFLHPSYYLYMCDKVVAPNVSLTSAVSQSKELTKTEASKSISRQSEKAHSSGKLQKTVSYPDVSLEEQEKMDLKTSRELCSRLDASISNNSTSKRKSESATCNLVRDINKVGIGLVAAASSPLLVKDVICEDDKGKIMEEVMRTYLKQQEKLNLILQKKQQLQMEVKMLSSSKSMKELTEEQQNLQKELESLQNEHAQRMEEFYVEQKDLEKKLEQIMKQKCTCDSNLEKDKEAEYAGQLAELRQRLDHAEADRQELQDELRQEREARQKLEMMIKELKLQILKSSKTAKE
UniProt Q9H0K1: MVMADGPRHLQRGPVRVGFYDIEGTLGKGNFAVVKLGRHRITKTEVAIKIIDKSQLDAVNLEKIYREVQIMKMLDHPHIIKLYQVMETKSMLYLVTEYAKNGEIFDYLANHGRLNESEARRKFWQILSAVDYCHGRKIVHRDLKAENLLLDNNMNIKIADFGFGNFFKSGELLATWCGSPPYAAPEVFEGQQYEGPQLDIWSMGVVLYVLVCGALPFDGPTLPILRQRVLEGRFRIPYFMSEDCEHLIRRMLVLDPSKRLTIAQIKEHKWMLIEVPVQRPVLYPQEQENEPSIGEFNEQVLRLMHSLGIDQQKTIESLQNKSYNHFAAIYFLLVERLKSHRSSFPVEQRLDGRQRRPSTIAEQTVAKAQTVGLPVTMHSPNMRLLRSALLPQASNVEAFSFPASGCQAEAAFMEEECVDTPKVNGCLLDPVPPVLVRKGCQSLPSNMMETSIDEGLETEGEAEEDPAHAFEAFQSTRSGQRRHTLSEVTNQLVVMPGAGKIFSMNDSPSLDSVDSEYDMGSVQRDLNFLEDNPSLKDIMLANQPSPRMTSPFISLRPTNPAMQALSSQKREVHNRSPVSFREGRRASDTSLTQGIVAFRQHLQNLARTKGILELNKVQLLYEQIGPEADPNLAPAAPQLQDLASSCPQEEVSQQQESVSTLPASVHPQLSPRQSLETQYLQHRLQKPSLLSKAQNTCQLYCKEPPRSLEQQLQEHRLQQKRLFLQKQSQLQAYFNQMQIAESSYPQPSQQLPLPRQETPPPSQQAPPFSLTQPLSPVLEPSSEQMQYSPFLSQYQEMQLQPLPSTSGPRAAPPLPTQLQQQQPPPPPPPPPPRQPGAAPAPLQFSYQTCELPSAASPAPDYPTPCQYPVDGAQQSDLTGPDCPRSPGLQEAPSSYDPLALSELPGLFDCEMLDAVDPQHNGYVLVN
UniProt O60779: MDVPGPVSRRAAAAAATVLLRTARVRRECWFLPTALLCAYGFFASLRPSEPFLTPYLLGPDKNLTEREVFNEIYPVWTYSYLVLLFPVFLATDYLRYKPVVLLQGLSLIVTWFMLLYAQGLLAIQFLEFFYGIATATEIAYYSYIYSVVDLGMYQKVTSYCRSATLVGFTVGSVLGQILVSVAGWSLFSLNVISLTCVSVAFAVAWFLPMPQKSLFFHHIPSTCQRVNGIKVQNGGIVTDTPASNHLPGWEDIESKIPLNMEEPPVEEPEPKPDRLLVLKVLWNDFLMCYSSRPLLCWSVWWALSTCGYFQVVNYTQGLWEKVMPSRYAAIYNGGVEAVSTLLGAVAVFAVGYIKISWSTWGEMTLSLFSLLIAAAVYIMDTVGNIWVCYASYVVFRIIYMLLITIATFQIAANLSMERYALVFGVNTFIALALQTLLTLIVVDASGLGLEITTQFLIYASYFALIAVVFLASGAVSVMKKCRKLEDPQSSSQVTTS

[1] = compound: C/C(=N\NC(=O)C1=CC(=CC=C1)S(=O)(=O)N2CCOCC2)/C3=C(C=CC(=C3)Cl)O
In short: as §1

[2] = compound: C1=CC(=CC=C1C2=NC3=C(N2)C=C(C=C3)C(=O)N)OC4=CC=C(C=C4)Cl
In short: as §1

[3] = compound: C1=CC2=C(C=CC(=C2)/C=C\3/C(=O)NC(=NCC4=CC=CS4)S3)N=C1
In short: as §1

[4] = compound: C1=CC=C(C=C1)C2=NC(=C(N2)C3=CC=NC=C3)C4=CC(=C(C=C4)Cl)O
In short: as §1

[5] = compound: C1=CC=C2C(=C1)C3=NNC4=CC=CC(=C43)C2=O
In short: as §1

IRAK-1-4 Inhibitor I = compound: C1COCCN1CCN2C3=CC=CC=C3N=C2NC(=O)C4=CC(=CC=C4)[N+](=O)[O-] [IRAK-1-4 Inhibitor I]
In short: as §1

[6] = compound: C1=CC2=NC=CN=C2C=C1/C=C/3\C(=O)NC(=O)S3
In short: as §1

[7] = compound: C1CCN(C1)C(=O)NC2=CC=CC(=C2)NC3=NC=C(C(=N3)NCCC4=CN=CN4)Br
In short: as §1

[8] = compound: C1CN(CCC1(CC2=CC=C(C=C2)Cl)N)C3=NC=NC4=C3C=CN4
In short: as §1

Measured: log2 fold change

SINHCAF (UniProt Q9NP50)
inactive: erlotinib 0.115 | [1] 0.377 | [2] -0.168 | [3] -0.906 | [4] -0.031 | [5] 0.015 | IRAK-1-4 Inhibitor I 0.079

SH3GL3 isoform 3 (UniProt Q99963)
inactive: erlotinib -0.023 | [1] -0.014 | [2] -0.002 | [3] -0.054 | [6] -0.053 | [4] -0.108 | [5] -0.133 | [7] 0.054 | [8] -0.06 | IRAK-1-4 Inhibitor I -0.124

SF3B2 (UniProt E9PJ04)
inactive: erlotinib -0.166 | [2] 0.042 | [6] -0.07

SLC22A18 (UniProt Q96BI1)
inactive: erlotinib -0.008 | [1] 0.043 | [2] -0.018 | [3] 0.049 | [6] -0.147 | [5] -0.03 | [7] -0.062 | [8] 0.004

SKOR2 (UniProt Q2VWA4)
inactive: erlotinib 0.083 | [1] -0.078 | [2] 0.02 | [3] -0.062 | [4] -0.087 | [5] -0.124 | [7] -0.052 | [8] 0.075 | IRAK-1-4 Inhibitor I -0.025

SIAH2 (UniProt O43255)
inactive: erlotinib 0.009 | [1] -0.082 | [2] 0.004 | [3] 0.048 | [6] 0.049 | [5] 0.172

Random excerpt: two entries already listed.
SLC22A18 (UniProt Q96BI1)
inactive: erlotinib -0.008 | [1] 0.043 | [2] -0.018 | [3] 0.049 | [6] -0.147 | [5] -0.03 | [7] -0.062 | [8] 0.004

SH3GL3 isoform 3 (UniProt Q99963)
inactive: erlotinib -0.023 | [1] -0.014 | [2] -0.002 | [3] -0.054 | [6] -0.053 | [4] -0.108 | [5] -0.133 | [7] 0.054 | [8] -0.06 | IRAK-1-4 Inhibitor I -0.124

Remaining list, next part:

SLC12A2 (UniProt P55011)
inactive: erlotinib 0.039 | [1] -0.037 | [2] 0.007 | [3] -0.003 | [6] -0.066 | [4] -0.022 | [5] 0.01 | [7] -0.012 | [8] 0.018 | IRAK-1-4 Inhibitor I -0.003

SIX4 (UniProt Q9UIU6)
inactive: erlotinib -0.011 | [2] -0.025 | [6] 0.052 | [4] -0.016 | [7] -0.171 | [8] 0.083 | IRAK-1-4 Inhibitor I -0.063

SETDB1 (UniProt Q15047)
inactive: erlotinib -0.026 | [1] -0.039 | [2] 0.046 | [3] -0.004 | [6] -0.003 | [4] 0.017 | [5] -0.066 | [7] 0.007 | [8] 0.046 | IRAK-1-4 Inhibitor I 0.037

SETX isoform 4 (UniProt Q7Z333)
inactive: erlotinib 0.016 | [1] -0.215 | [2] 0.055 | [3] -0.032 | [4] 0.024 | [5] -0.001 | [7] -0.019 | [8] -0.017 | IRAK-1-4 Inhibitor I 0.016

SFXN4 isoform 3 (UniProt Q6P4A7)
inactive: erlotinib -0.147 | [1] -0.322 | [2] 0.104 | [3] -0.143 | [6] -0.002 | [4] 0.089 | [5] -0.091 | [7] -0.122 | [8] 0.236 | IRAK-1-4 Inhibitor I 0.016

SERBP1 isoform 3 (UniProt Q8NC51)
inactive: erlotinib -0.021 | [2] 0.101 | [6] -0.041 | [4] 0.039 | [7] -0.067 | [8] 0.051 | IRAK-1-4 Inhibitor I -0.082

SHARPIN (UniProt Q9H0F6)
inactive: erlotinib 0.088 | [1] 0.019 | [2] -0.157 | [3] 0.09 | [4] -0.081 | [5] -0.026 | [7] 0.013 | [8] 0.022 | IRAK-1-4 Inhibitor I -0.177

SERPINB1 (UniProt P30740)
inactive: erlotinib 0.025 | [1] -0.04 | [2] 0.016 | [3] 0 | [6] -0.013 | [4] 0.004 | [5] -0.003 | [7] -0.005 | [8] 0.018 | IRAK-1-4 Inhibitor I 0.003

SGMS1 (UniProt Q86VZ5)
inactive: erlotinib -0.005 | [1] 0.092 | [2] -0.018 | [3] 0.006 | [4] -0.023 | [5] -0.102 | [7] -0.059 | [8] -0.006 | IRAK-1-4 Inhibitor I 0.01

SH3BGRL (UniProt O75368)
inactive: erlotinib 0.01 | [1] 0.021 | [2] 0.03 | [3] 0.001 | [6] -0.028 | [4] 0.023 | [5] 0.015 | [7] -0.026 | [8] 0.012 | IRAK-1-4 Inhibitor I 0.016

SFXN5 (UniProt Q8TD22)
inactive: erlotinib -0.057 | [1] -0.052 | [2] -0.171 | [3] 0.013 | [4] -0.002 | [5] -0.029 | [7] 0.064 | [8] -0.08 | IRAK-1-4 Inhibitor I -0.034

SH3KBP1 (UniProt Q96B97)
inactive: erlotinib -0.01 | [2] 0.016 | [6] 0.014 | [4] -0.115 | [7] -0.04 | [8] -0.115 | IRAK-1-4 Inhibitor I 0.03

SIRT1 (UniProt Q96EB6)
inactive: erlotinib 0.046 | [1] -0.029 | [2] 0.017 | [3] 0.023 | [6] -0.019 | [4] 0 | [5] -0.001 | [7] -0.012 | [8] 0.008 | IRAK-1-4 Inhibitor I -0.018

SIRT2 (UniProt Q8IXJ6)
inactive: erlotinib -0.04 | [1] -0.056 | [2] 0.002 | [3] 0.029 | [6] -0.036 | [4] 0.023 | [5] 0.048 | [7] -0.033 | [8] -0.042 | IRAK-1-4 Inhibitor I -0.051

SH3BP2 isoform 4 (UniProt P78314)
inactive: erlotinib -0.037 | [1] 0.213 | [2] 0.001 | [3] 0.044 | [6] -0.103 | [4] 0.088 | [5] -0.073 | IRAK-1-4 Inhibitor I 0.03

SFXN1 (UniProt Q9H9B4)
inactive: erlotinib 0.007 | [1] 0.034 | [2] -0.085 | [3] -0.024 | [6] 0.03 | [4] -0.027 | [5] 0.007 | [7] -0.005 | [8] 0 | IRAK-1-4 Inhibitor I -0.004

SIN3A (UniProt Q96ST3)
inactive: erlotinib 0.01 | [1] -0.043 | [2] -0.005 | [3] -0.007 | [6] 0.009 | [4] 0.013 | [5] -0.004 | [7] -0.011 | [8] 0.008 | IRAK-1-4 Inhibitor I 0.017

SETMAR (UniProt Q53H47)
inactive: erlotinib 0.066 | [1] 0.076 | [2] 0.068 | [3] -0.024 | [6] 0.005 | [4] -0.019 | [5] -0.075 | [7] -0.066 | [8] 0.008 | IRAK-1-4 Inhibitor I 0.005

SKP2 (UniProt Q13309)
inactive: erlotinib 0.06 | [1] -0.053 | [2] -0.063 | [3] 0.027 | [4] -0.023 | [5] -0.029 | [7] -0.027 | [8] 0.044 | IRAK-1-4 Inhibitor I -0.002

SLBP (UniProt Q14493)
inactive: erlotinib -0.061 | [1] 0.042 | [2] -0.086 | [3] -0.026 | [6] -0.042 | [4] -0.042 | [5] -0.004 | [7] 0.049 | [8] -0.028 | IRAK-1-4 Inhibitor I -0.029

SIRT3 (UniProt Q9NTG7)
inactive: erlotinib -0.044 | [1] 0.054 | [2] -0.012 | [3] -0.046 | [4] -0.011 | [5] 0.201 | IRAK-1-4 Inhibitor I -0.036

SH2B3 (UniProt Q9UQQ2)
inactive: erlotinib -0.009 | [1] -0.022 | [2] 0.012 | [3] 0.03 | [5] -0.224 | [7] 0.017 | [8] 0.125

SH3GLB2 (UniProt Q9NR46)
inactive: erlotinib -0.06 | [1] 0.039 | [2] 0.009 | [3] 0.006 | [6] -0.025 | [4] -0.035 | [5] -0.025 | [7] -0.056 | [8] -0.042 | IRAK-1-4 Inhibitor I -0.017

SKIL (UniProt P12757)
inactive: erlotinib 0.194 | [1] 0.063 | [2] 0.132 | [3] -0.035 | [4] 0.092 | [5] -0.084 | [7] -0.06 | [8] 0.129 | IRAK-1-4 Inhibitor I 0.022

SIK2 (UniProt Q9H0K1)
inactive: [4] 0.29 | [7] 0.245 | [8] 0.028 | IRAK-1-4 Inhibitor I 0.036

SHMT2 (UniProt G3V2Y4)
inactive: [6] -0.085

SLC19A2 (UniProt O60779)
inactive: [6] -0.174 | [7] 0.256 | [8] -0.253

From the supplement of paper PMC10849652
